Some of the results follow. Small differences around the control level are noise.

Amino acid sequences for entries named in this document (tags omitted). A change or cut given only in a name is not applied to a line headed by its entry.
UniProt P39212: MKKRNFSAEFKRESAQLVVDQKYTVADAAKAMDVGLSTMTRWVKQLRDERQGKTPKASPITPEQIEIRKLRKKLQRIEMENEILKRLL
UniProt P37146: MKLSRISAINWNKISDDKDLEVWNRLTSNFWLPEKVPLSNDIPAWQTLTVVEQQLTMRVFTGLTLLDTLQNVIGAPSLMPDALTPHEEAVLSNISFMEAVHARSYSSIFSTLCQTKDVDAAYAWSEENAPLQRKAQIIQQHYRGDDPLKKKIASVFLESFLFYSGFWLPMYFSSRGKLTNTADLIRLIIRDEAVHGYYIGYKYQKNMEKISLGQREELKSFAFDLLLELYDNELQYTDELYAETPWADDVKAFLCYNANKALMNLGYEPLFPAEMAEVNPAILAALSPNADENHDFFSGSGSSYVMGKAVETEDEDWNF
UniProt P39334: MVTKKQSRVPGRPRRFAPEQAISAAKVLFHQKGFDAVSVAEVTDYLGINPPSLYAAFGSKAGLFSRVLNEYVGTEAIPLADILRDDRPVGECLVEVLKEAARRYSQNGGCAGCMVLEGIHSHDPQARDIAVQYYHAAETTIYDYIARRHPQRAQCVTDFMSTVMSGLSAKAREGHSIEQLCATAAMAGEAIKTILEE
UniProt P45563: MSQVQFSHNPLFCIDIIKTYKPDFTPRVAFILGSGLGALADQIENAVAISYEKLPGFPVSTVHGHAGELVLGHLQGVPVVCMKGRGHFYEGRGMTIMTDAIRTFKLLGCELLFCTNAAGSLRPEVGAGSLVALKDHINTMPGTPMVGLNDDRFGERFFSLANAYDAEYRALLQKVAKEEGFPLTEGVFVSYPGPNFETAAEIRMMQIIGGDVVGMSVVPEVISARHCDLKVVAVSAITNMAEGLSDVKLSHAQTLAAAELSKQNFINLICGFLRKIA
UniProt P45541: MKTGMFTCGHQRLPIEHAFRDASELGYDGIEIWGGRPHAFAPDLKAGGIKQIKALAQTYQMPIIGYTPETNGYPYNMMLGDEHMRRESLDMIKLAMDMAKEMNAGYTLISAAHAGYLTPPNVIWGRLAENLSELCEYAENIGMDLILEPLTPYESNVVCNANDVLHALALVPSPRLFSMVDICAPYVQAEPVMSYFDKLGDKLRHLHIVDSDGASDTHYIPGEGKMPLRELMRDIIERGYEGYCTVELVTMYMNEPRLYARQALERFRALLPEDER
UniProt P45470: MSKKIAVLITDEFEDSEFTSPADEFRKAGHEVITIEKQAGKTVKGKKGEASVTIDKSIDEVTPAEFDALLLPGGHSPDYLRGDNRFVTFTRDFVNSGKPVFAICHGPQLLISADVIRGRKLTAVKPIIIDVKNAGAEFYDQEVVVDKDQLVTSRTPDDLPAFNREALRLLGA
UniProt P39362: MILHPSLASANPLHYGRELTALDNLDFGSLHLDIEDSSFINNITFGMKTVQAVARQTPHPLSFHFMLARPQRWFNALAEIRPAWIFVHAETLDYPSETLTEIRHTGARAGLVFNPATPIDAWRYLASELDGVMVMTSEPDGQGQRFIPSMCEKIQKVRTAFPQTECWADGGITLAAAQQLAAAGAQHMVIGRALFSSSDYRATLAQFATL
UniProt P37590: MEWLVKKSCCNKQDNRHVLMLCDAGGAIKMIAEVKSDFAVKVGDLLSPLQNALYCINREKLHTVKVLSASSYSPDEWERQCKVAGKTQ
UniProt P38489: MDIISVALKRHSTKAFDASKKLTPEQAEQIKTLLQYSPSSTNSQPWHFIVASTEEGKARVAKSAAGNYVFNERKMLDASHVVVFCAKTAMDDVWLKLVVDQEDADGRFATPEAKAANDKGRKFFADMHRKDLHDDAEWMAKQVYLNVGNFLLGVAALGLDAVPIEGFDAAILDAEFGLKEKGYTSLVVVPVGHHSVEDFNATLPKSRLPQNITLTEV
UniProt P39391: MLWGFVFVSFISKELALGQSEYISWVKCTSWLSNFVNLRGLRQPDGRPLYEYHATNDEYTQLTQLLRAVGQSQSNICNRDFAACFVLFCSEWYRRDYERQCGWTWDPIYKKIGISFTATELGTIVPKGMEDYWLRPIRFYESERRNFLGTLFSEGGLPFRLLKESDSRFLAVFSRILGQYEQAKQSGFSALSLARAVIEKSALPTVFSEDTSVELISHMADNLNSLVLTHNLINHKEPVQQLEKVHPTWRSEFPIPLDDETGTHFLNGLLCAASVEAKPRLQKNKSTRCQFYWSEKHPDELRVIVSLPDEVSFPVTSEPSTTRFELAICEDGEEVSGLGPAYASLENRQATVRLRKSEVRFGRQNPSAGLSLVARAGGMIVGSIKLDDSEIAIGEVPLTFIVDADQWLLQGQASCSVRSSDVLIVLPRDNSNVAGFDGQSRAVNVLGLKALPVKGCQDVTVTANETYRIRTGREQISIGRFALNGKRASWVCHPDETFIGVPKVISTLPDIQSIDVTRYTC
UniProt P42590: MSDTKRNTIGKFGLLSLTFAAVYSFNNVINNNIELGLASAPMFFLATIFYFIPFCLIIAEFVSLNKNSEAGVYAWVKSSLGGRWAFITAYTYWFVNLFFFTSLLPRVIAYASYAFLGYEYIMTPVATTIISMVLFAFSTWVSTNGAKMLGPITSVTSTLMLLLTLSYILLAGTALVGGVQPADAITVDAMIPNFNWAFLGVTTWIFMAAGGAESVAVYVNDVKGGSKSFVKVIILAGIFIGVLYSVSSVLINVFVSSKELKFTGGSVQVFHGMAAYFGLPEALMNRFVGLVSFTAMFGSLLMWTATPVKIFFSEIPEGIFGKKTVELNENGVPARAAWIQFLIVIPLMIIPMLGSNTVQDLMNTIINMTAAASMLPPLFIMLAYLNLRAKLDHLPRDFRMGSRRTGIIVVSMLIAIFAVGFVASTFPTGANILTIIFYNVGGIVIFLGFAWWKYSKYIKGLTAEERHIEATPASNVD
UniProt P40710: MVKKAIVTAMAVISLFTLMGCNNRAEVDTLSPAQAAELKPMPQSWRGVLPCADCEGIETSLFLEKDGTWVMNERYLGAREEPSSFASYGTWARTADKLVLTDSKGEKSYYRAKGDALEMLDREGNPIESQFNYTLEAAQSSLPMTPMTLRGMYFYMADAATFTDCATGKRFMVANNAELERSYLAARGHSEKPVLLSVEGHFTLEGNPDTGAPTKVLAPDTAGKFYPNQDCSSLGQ
UniProt P38035: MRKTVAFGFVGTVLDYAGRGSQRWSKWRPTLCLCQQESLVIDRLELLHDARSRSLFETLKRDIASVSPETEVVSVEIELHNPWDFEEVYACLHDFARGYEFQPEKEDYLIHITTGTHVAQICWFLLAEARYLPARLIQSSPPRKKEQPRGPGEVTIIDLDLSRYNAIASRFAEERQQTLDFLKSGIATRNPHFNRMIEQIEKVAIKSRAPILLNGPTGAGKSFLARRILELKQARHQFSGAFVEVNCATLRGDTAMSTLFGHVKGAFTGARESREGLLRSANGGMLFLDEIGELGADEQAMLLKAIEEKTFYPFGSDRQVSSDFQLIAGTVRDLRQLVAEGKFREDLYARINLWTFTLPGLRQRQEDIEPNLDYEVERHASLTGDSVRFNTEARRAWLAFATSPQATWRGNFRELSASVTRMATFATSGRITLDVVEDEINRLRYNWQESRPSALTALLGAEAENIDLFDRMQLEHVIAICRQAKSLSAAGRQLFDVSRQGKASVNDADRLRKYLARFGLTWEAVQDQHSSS
UniProt P39343: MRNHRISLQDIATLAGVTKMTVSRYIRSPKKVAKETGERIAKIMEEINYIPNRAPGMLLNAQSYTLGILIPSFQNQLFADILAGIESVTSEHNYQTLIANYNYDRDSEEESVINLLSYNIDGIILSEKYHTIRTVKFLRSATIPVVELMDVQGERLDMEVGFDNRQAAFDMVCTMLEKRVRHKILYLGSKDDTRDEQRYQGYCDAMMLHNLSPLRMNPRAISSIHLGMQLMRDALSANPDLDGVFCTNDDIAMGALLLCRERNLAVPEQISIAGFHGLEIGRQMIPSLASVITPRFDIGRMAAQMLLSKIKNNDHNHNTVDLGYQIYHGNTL
UniProt P37685: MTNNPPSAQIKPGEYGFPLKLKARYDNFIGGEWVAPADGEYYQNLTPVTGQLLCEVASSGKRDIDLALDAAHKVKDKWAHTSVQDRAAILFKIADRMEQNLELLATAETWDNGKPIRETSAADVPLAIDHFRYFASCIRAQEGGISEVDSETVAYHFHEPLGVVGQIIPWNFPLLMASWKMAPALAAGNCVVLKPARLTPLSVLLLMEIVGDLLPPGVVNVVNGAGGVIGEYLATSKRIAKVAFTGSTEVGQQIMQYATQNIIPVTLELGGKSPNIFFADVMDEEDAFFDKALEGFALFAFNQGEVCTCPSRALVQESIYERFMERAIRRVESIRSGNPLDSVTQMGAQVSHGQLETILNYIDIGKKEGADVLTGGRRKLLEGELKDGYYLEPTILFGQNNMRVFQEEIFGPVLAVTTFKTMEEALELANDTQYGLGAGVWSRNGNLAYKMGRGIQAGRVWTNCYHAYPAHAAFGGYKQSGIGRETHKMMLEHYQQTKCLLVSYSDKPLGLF
UniProt P37177: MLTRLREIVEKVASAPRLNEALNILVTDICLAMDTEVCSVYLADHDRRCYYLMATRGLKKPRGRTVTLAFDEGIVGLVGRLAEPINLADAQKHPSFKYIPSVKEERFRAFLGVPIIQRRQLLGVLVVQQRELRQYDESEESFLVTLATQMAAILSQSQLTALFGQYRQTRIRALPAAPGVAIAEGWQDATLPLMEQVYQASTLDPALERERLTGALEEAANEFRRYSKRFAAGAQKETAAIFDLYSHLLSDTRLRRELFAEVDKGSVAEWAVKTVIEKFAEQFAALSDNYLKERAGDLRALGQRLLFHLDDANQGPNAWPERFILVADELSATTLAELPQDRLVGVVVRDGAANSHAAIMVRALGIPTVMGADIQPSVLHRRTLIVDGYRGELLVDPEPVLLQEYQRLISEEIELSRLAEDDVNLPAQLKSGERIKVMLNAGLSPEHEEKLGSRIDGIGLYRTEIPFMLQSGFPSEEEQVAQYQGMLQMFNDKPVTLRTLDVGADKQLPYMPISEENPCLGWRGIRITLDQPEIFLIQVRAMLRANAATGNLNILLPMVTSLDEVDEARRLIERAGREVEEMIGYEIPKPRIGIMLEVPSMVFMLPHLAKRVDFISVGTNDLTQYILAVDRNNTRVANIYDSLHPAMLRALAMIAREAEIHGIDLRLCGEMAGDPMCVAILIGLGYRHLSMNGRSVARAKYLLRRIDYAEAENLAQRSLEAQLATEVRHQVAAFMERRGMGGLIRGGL
UniProt P43674: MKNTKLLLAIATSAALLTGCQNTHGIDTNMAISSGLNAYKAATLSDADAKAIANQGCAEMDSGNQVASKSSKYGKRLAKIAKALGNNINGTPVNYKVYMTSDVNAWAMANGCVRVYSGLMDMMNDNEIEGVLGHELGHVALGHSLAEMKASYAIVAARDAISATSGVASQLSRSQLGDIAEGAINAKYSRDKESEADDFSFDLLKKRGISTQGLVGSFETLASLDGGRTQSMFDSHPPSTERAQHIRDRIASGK
UniProt P45804: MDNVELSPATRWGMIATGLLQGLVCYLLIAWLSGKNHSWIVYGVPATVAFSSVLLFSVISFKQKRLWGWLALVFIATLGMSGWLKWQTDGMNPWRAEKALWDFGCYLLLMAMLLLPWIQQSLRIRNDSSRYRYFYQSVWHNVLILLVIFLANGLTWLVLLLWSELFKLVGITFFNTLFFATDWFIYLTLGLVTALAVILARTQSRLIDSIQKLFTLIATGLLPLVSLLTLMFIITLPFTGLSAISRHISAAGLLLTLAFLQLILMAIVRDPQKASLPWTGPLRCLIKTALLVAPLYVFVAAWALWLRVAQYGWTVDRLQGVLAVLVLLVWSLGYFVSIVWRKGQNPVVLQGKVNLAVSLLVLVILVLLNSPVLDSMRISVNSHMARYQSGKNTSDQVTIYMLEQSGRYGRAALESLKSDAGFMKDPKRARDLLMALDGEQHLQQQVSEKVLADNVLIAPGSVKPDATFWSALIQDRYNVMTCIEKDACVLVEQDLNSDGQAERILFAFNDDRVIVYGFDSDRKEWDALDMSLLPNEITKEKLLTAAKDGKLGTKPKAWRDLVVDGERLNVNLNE
UniProt P39409: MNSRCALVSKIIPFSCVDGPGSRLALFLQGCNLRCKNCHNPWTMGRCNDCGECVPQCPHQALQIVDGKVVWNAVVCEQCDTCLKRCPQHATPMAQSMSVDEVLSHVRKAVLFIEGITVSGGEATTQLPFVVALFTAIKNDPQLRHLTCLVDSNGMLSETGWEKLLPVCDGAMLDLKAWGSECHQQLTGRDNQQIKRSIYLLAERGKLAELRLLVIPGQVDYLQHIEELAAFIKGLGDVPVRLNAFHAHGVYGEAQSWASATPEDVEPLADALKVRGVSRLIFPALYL
UniProt P37338: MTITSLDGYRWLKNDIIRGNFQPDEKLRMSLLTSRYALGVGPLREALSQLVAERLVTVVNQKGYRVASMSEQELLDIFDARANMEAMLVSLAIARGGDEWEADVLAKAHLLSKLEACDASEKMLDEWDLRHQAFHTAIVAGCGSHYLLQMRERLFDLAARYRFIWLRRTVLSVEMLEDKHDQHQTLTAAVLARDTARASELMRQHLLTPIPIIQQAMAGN

Compound in this experiment: CC1(C)S[C@@H]2[C@H](NC(=O)[C@H](N)c3ccccc3)C(=O)N2[C@H]1C(=O)O [ampicillin]
As to the kind of experiment: log2 fold change of tryptic peptide abundance, ligand vs vehicle (limited proteolysis) (log2 ratio); higher = more trypsin-susceptible (destabilized). To be noted: ligand concentration: 10 uM; sample: E. coli crude lysate.
Turning to “UniProt P39212 (peptide sequence: AMDVGLSTMTR, peptide start residue: 31)”, the log2 fold change is -0.286.
Under “UniProt P37689 (peptide sequence: QMGNSEVGHVNLGAGR, peptide start residue: 60)” stands 0.12.
Under “UniProt P37146 (peptide sequence: ISDDKDLEVWNR, peptide start residue: 14)” stands -0.0367.
In the case of “UniProt P39377 (peptide sequence: IEQVYAR, peptide start residue: 365)”, the log2 fold change is -0.367.
On to “UniProt P37649 (peptide sequence: RIDDPHAAVAILRPLR, peptide start residue: 540)”, for which the log2 fold change stood at 0.29.
Under “UniProt P45523 (peptide sequence: YMENSLKEQEKLGIK, peptide start residue: 59)” stands -0.302; under “UniProt P39334 (peptide sequence: DDRPVGECLVEVLK, peptide start residue: 85)”, 0.469.
Under “UniProt P45563 (peptide sequence: LSHAQTLAAAELSK, peptide start residue: 249)” stands -0.102; under “UniProt P37388 (peptide sequence: DGQHIGTR, peptide start residue: 217)”, 0.124.
Under “UniProt P33934 (peptide sequence: GVITVAATDR, peptide start residue: 214)” stands 0.178.
As for “UniProt P45541 (peptide sequence: ALLPEDER, peptide start residue: 269)”, the log2 fold change was -0.117.
Regarding “UniProt P45470 (peptide sequence: KGEASVTIDK, peptide start residue: 47)”, the log2 fold change was -0.083.
Under “UniProt P39362 (peptide sequence: ALFSSSDYR, peptide start residue: 193)” stands -0.113; under “UniProt P37590 (peptide sequence: HVLMLCDAGGAIK, peptide start residue: 17)”, 0.104; under “UniProt P37744 (peptide sequence: YGVVEFDKNGTAISLEEKPLEPK, peptide start residue: 146)”, 0.171.
Under “UniProt P38489 (peptide sequence: KFFADMHRK, peptide start residue: 122)” stands 0.553; under “UniProt P39391 (peptide sequence: ILGQYEQAK, peptide start residue: 176)”, -0.212; under “UniProt P42590 (peptide sequence: HIEATPASNVD, peptide start residue: 467)”, 0.0407.
On to “UniProt P40710 (peptide sequence: FMVANNAELER, peptide start residue: 171)”, for which the log2 fold change worked out at 0.0687.
Under “UniProt P38035 (peptide sequence: LIQSSPPR, peptide start residue: 136)” stands 0.464; under “UniProt P39343 (peptide sequence: MAAQMLLSK, peptide start residue: 301)”, -0.191; under “UniProt P37685 (peptide sequence: ALVQESIYER, peptide start residue: 313)”, -0.121.
“UniProt P37443 (peptide sequence: VALASASRYNAWR, peptide start residue: 682)”: the log2 fold change is -0.0822.
In the case of “UniProt P37177 (peptide sequence: RIDYAEAENLAQR, peptide start residue: 705)”, the log2 fold change was -0.417.
Consider “UniProt P37627 (peptide sequence: FQQSIQDDKISFTIQTDHSEK, peptide start residue: 68)”, for which the log2 fold change was -0.215.
Take “UniProt P45771 (peptide sequence: HGPFLGCSQYPACDYVRPLK, peptide start residue: 29)”: the log2 fold change amounted to 0.126.
Under “UniProt P38521 (peptide sequence: CTEEHQAIVRK, peptide start residue: 77)” stands 0.141.
Under “UniProt P36928 (peptide sequence: HHDVPADDDETQALLRR, peptide start residue: 53)” stands -0.26; under “UniProt P43674 (peptide sequence: TQSMFDSHPPSTER, peptide start residue: 229)”, 0.325; under “UniProt P39361 (peptide sequence: AGCQLFLPHSIK, peptide start residue: 249)”, -0.199.
Under “UniProt P45804 (peptide sequence: ILFAFNDDR, peptide start residue: 504)” stands 0.0744.
As for “UniProt P39409 (peptide sequence: SIYLLAER, peptide start residue: 197)”, the log2 fold change is -0.0854.
Under “UniProt P45769 (peptide sequence: SLCMKPK, peptide start residue: 161)” stands 0.24; under “UniProt P37051 (peptide sequence: HELNIVQNNEFVDHR, peptide start residue: 30)”, 0.101; under “UniProt P37338 (peptide sequence: AHLLSKLEACDASEK, peptide start residue: 108)”, 0.632.
Under “UniProt P33941 (peptide sequence: NGQLSELTGEER, peptide start residue: 524)” stands 0.179.
